Experimental data from US20250250582A1, “Plant Cells and Plants Modified to Increase Herbicide Resistance and Stress Tolerance and Methods of Using the Same” (The Board of Trustees of the University of Arkansas, priority 2018, published 2025).
The amount applied is not stated for every result.

test system: susceptible E. colona (ECO-S); assay: Gene ontology enrichment analysis following herbicide treatment in ECO-S; type: in vivo, Echinochloa colona; details: 24 h

Structure (SMILES)	enriched gene ontology terms unique to the herbicide
C[C@@H](Oc1ccc(Oc2ccc(C#N)cc2F)cc1)C(=O)O [cyhalofop]	26
CP(=O)(O)CCC(N)C(=O)O (stereo not shown) [glufosinate]	68
CCC(=O)Nc1ccc(Cl)c(Cl)c1 [propanil]	19
O=C(O)c1c(Cl)ccc2cc(Cl)cnc12 [quinclorac]	14
